Construct, isoform or probe ends are uncertain for at least one entry. At least one verdict was read from the data and is not stated in words by the source.

This data set deals with HFV integrase (HFV IN) (Human foamy virus) (UniProt P14350). In words: fluorescence polarization. As to conditions: 7.5 mM Mg2+, 4 nM DNA, 100 nM IN, kinetics; recombinant protein; label: fluorescein on 5' of U5B. In general terms: Fluorescence polarisation rises when a labelled molecule tumbles more slowly, as on binding a larger partner.

On to “ATACAAAATTCCATGACAAT (double strand) [U5-HFV duplex, fluorescein]”, for which the binding result was “binds”.

Values taken from paper PMC3347520.
